In this test the target is CD25 (UniProt P01589). Kind of test: Biacore; antibody captured on a Protein A chip, antigen flowed at 100 nM. For orientation: SPR reads the build-up and loss of mass on a sensor chip optically.

Protein sequences, listed by entry. Tags and fused reporters are not part of them. Residues count along the entry.
UniProt P01589, residues 22-240: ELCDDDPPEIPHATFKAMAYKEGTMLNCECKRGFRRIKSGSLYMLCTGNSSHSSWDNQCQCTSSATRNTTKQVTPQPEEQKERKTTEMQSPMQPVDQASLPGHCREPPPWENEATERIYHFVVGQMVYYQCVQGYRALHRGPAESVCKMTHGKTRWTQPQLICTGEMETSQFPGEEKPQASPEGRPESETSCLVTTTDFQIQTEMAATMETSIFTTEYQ

From US20170037131A1 come the findings set out here.

No constants are given. Whether binding was seen depends on the method and setting. Some results given as binding are weak or reduced against the parent protein; the word gives no strength.

B1: HuMax-TAC anti-CD25 heavy chain paired with the anti-CD4 light chain of OKT4A (antibody, V domains shown)
VH: QVQLVQSGAEVKKPGSSVKVSCKASGGTFSRYIINWVRQAPGQGLEWMGRIIPILGVENYAQKFQGRVTITADKSTSTAYMELSSLRSEDTAVYYCARKDWFDYWGQGTLVTVSS
VL: DIQMTQSPSSLSASLGGKVTIACKASQDINNYIAWYQHKPGKGPRLLIHYTSTLQPGIPSRFSGSGSGRDYSFSISNLEPEDIATYYCLQYDNLLFTFGGGTKLEIKR
With B1, the binding entry was “binds”.
